Data reported in paper doi:10.1101/2020.06.06.138156 (bioRxiv, 2020).
No constants are given. Whether binding was seen depends on the method and setting. In cells and extracts the contact can be indirect.

Columns and labels:
[1] = target: T1, Halo-SETD2CΔ2114-2263 (human) (UniProt Q9BYW2); assay: pull-down
T1 sequence: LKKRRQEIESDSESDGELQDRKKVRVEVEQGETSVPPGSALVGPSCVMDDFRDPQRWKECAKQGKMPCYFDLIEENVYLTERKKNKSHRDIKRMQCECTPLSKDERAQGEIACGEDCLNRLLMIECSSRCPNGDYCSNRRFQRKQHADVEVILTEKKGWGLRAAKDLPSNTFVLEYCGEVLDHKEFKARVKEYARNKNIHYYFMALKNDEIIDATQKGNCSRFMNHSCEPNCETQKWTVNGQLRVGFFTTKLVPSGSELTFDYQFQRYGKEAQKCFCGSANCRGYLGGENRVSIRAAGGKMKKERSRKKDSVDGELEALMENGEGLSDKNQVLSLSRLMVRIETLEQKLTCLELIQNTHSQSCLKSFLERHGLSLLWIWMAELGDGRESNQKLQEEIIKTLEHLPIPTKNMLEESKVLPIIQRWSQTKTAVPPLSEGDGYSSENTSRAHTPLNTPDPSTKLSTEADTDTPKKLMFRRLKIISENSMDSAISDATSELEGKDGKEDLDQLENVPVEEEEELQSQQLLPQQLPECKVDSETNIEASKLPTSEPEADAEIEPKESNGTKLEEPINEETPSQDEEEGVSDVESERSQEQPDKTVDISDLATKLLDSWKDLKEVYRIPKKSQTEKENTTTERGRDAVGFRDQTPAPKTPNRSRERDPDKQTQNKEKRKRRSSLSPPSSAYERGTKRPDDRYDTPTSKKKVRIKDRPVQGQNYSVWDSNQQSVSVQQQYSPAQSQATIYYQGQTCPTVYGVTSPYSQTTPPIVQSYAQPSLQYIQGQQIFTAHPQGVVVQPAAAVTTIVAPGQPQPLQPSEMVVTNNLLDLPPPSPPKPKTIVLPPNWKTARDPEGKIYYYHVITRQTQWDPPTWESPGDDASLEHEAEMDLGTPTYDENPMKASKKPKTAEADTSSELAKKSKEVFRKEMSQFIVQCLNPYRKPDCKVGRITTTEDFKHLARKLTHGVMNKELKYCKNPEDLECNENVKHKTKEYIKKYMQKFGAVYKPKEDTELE

[2] = target: T2, Halo-SETD2CΔ2164-2213 (human) (UniProt Q9BYW2); assay: pull-down
T2 sequence: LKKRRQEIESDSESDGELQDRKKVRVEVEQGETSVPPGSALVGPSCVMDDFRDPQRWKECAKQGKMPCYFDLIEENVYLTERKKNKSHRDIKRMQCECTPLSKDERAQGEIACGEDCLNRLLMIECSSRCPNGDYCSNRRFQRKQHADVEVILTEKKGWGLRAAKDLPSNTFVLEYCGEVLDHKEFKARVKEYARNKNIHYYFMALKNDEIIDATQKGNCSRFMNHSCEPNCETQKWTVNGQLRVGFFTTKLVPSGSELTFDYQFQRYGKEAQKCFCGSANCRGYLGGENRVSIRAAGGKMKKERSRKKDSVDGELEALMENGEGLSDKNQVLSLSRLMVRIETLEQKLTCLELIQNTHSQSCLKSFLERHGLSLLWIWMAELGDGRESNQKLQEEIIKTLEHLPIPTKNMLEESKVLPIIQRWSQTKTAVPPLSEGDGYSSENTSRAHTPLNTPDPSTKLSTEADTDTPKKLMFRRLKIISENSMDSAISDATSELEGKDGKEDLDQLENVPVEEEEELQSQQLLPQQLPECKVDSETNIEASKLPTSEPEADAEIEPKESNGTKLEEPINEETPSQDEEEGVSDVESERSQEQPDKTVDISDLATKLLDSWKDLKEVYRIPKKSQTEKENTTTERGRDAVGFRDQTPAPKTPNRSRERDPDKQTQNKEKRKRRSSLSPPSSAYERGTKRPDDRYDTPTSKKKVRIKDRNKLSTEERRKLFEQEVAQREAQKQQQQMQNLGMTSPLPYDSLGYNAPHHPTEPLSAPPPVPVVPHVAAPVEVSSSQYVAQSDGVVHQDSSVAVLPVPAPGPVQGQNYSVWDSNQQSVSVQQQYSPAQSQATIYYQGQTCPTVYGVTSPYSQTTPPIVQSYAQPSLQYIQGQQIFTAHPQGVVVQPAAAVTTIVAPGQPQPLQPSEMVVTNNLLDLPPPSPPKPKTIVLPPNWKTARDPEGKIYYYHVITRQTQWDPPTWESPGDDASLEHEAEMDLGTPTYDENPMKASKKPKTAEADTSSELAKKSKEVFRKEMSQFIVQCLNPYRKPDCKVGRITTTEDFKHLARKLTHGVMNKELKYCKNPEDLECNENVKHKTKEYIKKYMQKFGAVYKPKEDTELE

- binding [1]: no binding
- binding [2]: no binding
B1: hnRNP L (endogenous) (protein, UniProt P14866 1-589)
chain: MSRRLLPRAEKRRRRLEQRQQPDEQRRRSGAMVKMAAAGGGGGGGRYYGGGSEGGRAPKRLKTDNAGDQHGGGGGGGGGAGAAGGGGGGENYDDPHKTPASPVVHIRGLIDGVVEADLVEALQEFGPISYVVVMPKKRQALVEFEDVLGACNAVNYAADNQIYIAGHPAFVNYSTSQKISRPGDSDDSRSVNSVLLFTILNPIYSITTDVLYTICNPCGPVQRIVIFRKNGVQAMVEFDSVQSAQRAKASLNGADIYSGCCTLKIEYAKPTRLNVFKNDQDTWDYTNPNLSGQGDPGSNPNKRQRQPPLLGDHPAEYGGPHGGYHSHYHDEGYGPPPPHYEGRRMGPPVGGHRRGPSRYGPQYGHPPPPPPPPEYGPHADSPVLMVYGLDQSKMNCDRVFNVFCLYGNVEKVKFMKSKPGAAMVEMADGYAVDRAITHLNNNFMFGQKLNVCVSKQPAIMPGQSYGLEDGSCSYKDFSESRNNRFSTPEQAAKNRIQHPSNVLHFFNAPLEVTEENFFEICDELGVKRPSSVKVFSGKSERSSSGLLEWESKSDALETLGFLNHYQMKNPNGPYPYTLKLCFSTAQHAS
